Measurements reported in PubChem BioAssay AID1259267 (Sanger Institute, 2017)
Aim: 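Essential and drug-synergistic knock-downs in GP5D bowel cancer cells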 (primary screen). Cell system: human GP5D colorectal cancer cells. Reagent: siRNA pool against human genes. Challenge: anchor drugs at low dose: BYL719 1 µM, cetuximab 5 µg/ml, trametinib 10 nM, or DMSO vehicle. Detection: 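Mean replicate viability versus non-targeting pool, given as knock-down-alone robust z-score, DMSO fraction, and synergy with low-dose BYL719, cetuximab or trametinib (1 µM, 5 µg/ml, 10 nM)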. Scale: robust z-score, knock-down alone: higher = more viable cells. Hit rule: 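Active (essential alone) if knock-down without drug gives robust z-score under -3; drug synergy does not count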. Meaning of the calls: active = essential alone; inactive = not essential.
This is an unselected part of 794 reagents. In the full data, 9 (1.1%) are marked active. 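Viability capped at 1; calls reflect loss of viability from knock-down alone, not synergy with drugs.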 Unmarked entries are inactive. Further read-outs or replicates are left out here. Not stated in the record: the amount of reagent, the time to read-out.

DYRK1A [SID135620889]
- robust z-score, knock-down alone: 0.817

CDK19 (cyclin dependent kinase 19) [SID56478856]
- robust z-score, knock-down alone: 0.817

STAG2 (STAG2 cohesin complex component) [SID152146952]
- robust z-score, knock-down alone: -0.661

CSNK1E (casein kinase 1 epsilon) [SID56478659]
- robust z-score, knock-down alone: 0.817

PEAK1 (pseudopodium enriched atypical kinase 1) [SID152152075]
- robust z-score, knock-down alone: 0.817

NME7 (NME/NM23 family member 7) [SID56479121]
- robust z-score, knock-down alone: 0.817

PFKFB1 (6-phosphofructo-2-kinase/fructose-2,6-biphosphatase 1) [SID135621245]
- robust z-score, knock-down alone: -0.88

BUB1B (BUB1 mitotic checkpoint serine/threonine kinase B) [SID152154799]
- robust z-score, knock-down alone: 0.686

PRKCH (protein kinase C eta) [SID56478829]
- robust z-score, knock-down alone: 0.817

STK25 (serine/threonine kinase 25) [SID135620899]
- robust z-score, knock-down alone: 0.817

NME1 (NME/NM23 nucleoside diphosphate kinase 1) [SID56479166]
- robust z-score, knock-down alone: -1.48

ALDH18A1 (aldehyde dehydrogenase 18 family member A1) [SID152152799]
- robust z-score, knock-down alone: 0.636

MASTL (microtubule associated serine/threonine kinase like) [SID56478754]
- robust z-score, knock-down alone: 0.265

STK10 (serine/threonine kinase 10) [SID56478780]
- robust z-score, knock-down alone: 0.817

CDK12 (cyclin dependent kinase 12) [SID152151382]
- robust z-score, knock-down alone: 0.817

RIPK2 (receptor interacting serine/threonine kinase 2) [SID152156478]
- robust z-score, knock-down alone: 0.279

TPD52L3 (TPD52 like 3) [SID56479192]
- robust z-score, knock-down alone: -0.276

NTN4 (netrin 4) [SID152155179]
- robust z-score, knock-down alone: -0.945

EPHA1 (EPH receptor A1) [SID152153474]
- robust z-score, knock-down alone: 0.817

MAGI1 [SID152150294]
- robust z-score, knock-down alone: 0.0201

MAP2K6 (mitogen-activated protein kinase kinase 6) [SID135620765]
- robust z-score, knock-down alone: 0.817

PRKD2 (protein kinase D2) [SID135620789]
- robust z-score, knock-down alone: -2.78

DCLK1 (doublecortin like kinase 1) [SID56478913]
- robust z-score, knock-down alone: 0.817

FGR (FGR proto-oncogene, Src family tyrosine kinase) [SID135620620]
- robust z-score, knock-down alone: -1.48

BUB1 (BUB1 mitotic checkpoint serine/threonine kinase) [SID152152440]
- robust z-score, knock-down alone: -1.27

CHEK2 (checkpoint kinase 2) [SID152153325]
- robust z-score, knock-down alone: 0.683

PRKACG (protein kinase cAMP-activated catalytic subunit gamma) [SID56478826]
- robust z-score, knock-down alone: 0.817

TTBK1 (tau tubulin kinase 1) [SID135620866]
- robust z-score, knock-down alone: -0.715

GK2 (glycerol kinase 2) [SID56479273]
- robust z-score, knock-down alone: -0.0623

PDGFRL (platelet derived growth factor receptor like) [SID134315029]
- robust z-score, knock-down alone: 0.817

DLG3 (discs large MAGUK scaffold protein 3) [SID135621778]
- robust z-score, knock-down alone: 0.773

AURKC (aurora kinase C) [SID152150186]
- robust z-score, knock-down alone: 0.209

MPP3 (MAGUK p55 scaffold protein 3) [SID152152750]
- robust z-score, knock-down alone: -2.2

NUP107 (nucleoporin 107) [SID152154550]
- robust z-score, knock-down alone: -2.77

CSNK2A1 (casein kinase 2 alpha 1) [SID135620685]
- robust z-score, knock-down alone: 0.817

CDKN1C (cyclin dependent kinase inhibitor 1C) [SID56478604]
- robust z-score, knock-down alone: 0.38

Records listed so far whose target name begins with D or d:
DYRK1A [SID135620889]
- robust z-score, knock-down alone: 0.817

DCLK1 (doublecortin like kinase 1) [SID56478913]
- robust z-score, knock-down alone: 0.817

DLG3 (discs large MAGUK scaffold protein 3) [SID135621778]
- robust z-score, knock-down alone: 0.773
